Among the data in PMC10558642 (2023) are binding values, retold here.

No constants are given. Whether binding was seen depends on the method and setting. Binding can be weak; no strength is given. For part of these data: Tags and fused reporters may be left off the sequences shown. For part of these data: In cells and extracts the contact can be indirect.

Experiment [1] addresses T1, OTUD5, endogenous in neonatal rat cardiomyocytes (rat (endogenous in NRCMs)) (UniProt Q2YDU3).
T1 sequence: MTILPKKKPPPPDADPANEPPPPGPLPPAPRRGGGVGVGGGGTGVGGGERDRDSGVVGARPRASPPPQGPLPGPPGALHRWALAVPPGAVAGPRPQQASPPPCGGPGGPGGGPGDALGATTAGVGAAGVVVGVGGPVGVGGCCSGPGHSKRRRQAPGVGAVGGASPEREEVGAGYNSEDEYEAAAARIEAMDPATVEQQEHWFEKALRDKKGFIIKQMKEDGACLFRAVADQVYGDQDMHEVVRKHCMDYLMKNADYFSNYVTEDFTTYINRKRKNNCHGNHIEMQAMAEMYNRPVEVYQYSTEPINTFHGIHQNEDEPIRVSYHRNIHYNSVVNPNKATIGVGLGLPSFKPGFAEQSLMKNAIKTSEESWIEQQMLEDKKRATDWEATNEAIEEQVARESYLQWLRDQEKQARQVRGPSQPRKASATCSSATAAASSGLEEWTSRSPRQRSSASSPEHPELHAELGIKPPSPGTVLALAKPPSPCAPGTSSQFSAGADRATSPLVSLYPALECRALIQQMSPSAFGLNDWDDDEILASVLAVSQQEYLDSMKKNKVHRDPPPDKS
In words: co-IP; lysates of NRCMs with or without 4-HNE (40 µM, 6 h); IP with GPX4- or OTUD5-specific antibody or control IgG, probed for GPX4/OTUD5 (reciprocal).

Experiment [2] deals with GPX4, endogenous in neonatal rat cardiomyocytes (rat (endogenous in NRCMs)). Briefly: proximity ligation; Duolink PLA between GPX4 and OTUD5 in fixed NRCMs, with or without 4-HNE (40 µM, 6 h).
Experiment [3] has the same target. Briefly: co-IP; lysates of NRCMs with or without 4-HNE (40 µM, 6 h); IP with GPX4- or OTUD5-specific antibody or control IgG, probed for GPX4/OTUD5 (reciprocal).
Experiment [4] deals with GPX4, endogenous in mouse heart (mouse (endogenous in heart)). In words: co-IP; co-immunoprecipitation from hearts in the MI/R model, ALDH2 cKO mice (Figure S8E,F).
The target of experiment [5] is GPX4 mutant C93A (carbonylation-defective). Briefly: co-IP; lysates of HEK293T cells transfected with GPX4 and Flag-OTUD5 plasmids (wild type or mutants), with or without 4-HNE (40 µM, 6 h); Protein A/G magnetic beads.
The target in a further experiment is GST-GPX4 fusion protein. Briefly: pull-down; GST-GPX4 on GST beads at 4 °C overnight, purified His-OTUD5 added and incubated at 4 °C overnight, with or without 4-HNE (100 µM, 1 h, room temperature); western blotting; both purified. (In general: Immunoblotting shows a protein as a band on a membrane.)

Regarding “GPX4, endogenous in neonatal rat cardiomyocytes”, the binding entry in experiment [1] is “binds”.

B1: OTUD5, endogenous in neonatal rat cardiomyocytes (protein, UniProt Q2YDU3 1-566)
chain: MTILPKKKPPPPDADPANEPPPPGPLPPAPRRGGGVGVGGGGTGVGGGERDRDSGVVGARPRASPPPQGPLPGPPGALHRWALAVPPGAVAGPRPQQASPPPCGGPGGPGGGPGDALGATTAGVGAAGVVVGVGGPVGVGGCCSGPGHSKRRRQAPGVGAVGGASPEREEVGAGYNSEDEYEAAAARIEAMDPATVEQQEHWFEKALRDKKGFIIKQMKEDGACLFRAVADQVYGDQDMHEVVRKHCMDYLMKNADYFSNYVTEDFTTYINRKRKNNCHGNHIEMQAMAEMYNRPVEVYQYSTEPINTFHGIHQNEDEPIRVSYHRNIHYNSVVNPNKATIGVGLGLPSFKPGFAEQSLMKNAIKTSEESWIEQQMLEDKKRATDWEATNEAIEEQVARESYLQWLRDQEKQARQVRGPSQPRKASATCSSATAAASSGLEEWTSRSPRQRSSASSPEHPELHAELGIKPPSPGTVLALAKPPSPCAPGTSSQFSAGADRATSPLVSLYPALECRALIQQMSPSAFGLNDWDDDEILASVLAVSQQEYLDSMKKNKVHRDPPPDKS
On to B1, for which the binding entry in experiment [2] and in experiment [3] was “binds” in each case.

B2: OTUD5, endogenous in mouse heart (protein, UniProt Q3U2S4 1-566)
chain: MTILPKKKPPPPDADPANEPPPPGPLPPAPRRGAGVGVGGGGTGVGGGERDRDSGVVGARPRASPPPQGPLPGPPGALHRWALAVPPGAVAGPRPQQASPPPCGGPGGPGGGPGDALGATTAGVGAAGVVVGVGGTVGVGGCCSGPGHSKRRRQAPGVGAVGGASPEREEVGAGYNSEDEYEAAAARIEAMDPATVEQQEHWFEKALRDKKGFIIKQMKEDGACLFRAVADQVYGDQDMHEVVRKHCMDYLMKNADYFSNYVTEDFTTYINRKRKNNCHGNHIEMQAMAEMYNRPVEVYQYSTEPINTFHGIHQNEDEPIRVSYHRNIHYNSVVNPNKATIGVGLGLPSFKPGFAEQSLMKNAIKTSEESWIEQQMLEDKKRATDWEATNEAIEEQVARESYLQWLRDQEKQARQVRGPSQPRKASATCSSATAAASSGLEEWTSRSPRQRSSASSPEHPELHAELGIKPPSPGTVLALAKPPSPCAPGTSSQFSAGGDRATSPLVSLYPALECRALIQQMSPSAFGLNDWDDDEILASVLAVSQQEYLDSMKKNKVHREPPPDKS
For the molecule B2, the binding entry in experiment [4] is given as “binds”.

B3: Flag-OTUD5 mutant C247A (carbonylation-defective) (protein, UniProt Q96G74 1-571)
chain: MTILPKKKPPPPDADPANEPPPPGPMPPAPRRGGGVGVGGGGTGVGGGDRDRDSGVVGARPRASPPPQGPLPGPPGALHRWALAVPPGAVAGPRPQQASPPPCGGPGGPGGGPGDALGAAAAGVGAAGVVVGVGGAVGVGGCCSGPGHSKRRRQAPGVGAVGGGSPEREEVGAGYNSEDEYEAAAARIEAMDPATVEQQEHWFEKALRDKKGFIIKQMKEDGACLFRAVADQVYGDQDMHEVVRKHAMDYLMKNADYFSNYVTEDFTTYINRKRKNNCHGNHIEMQAMAEMYNRPVEVYQYSTGTSAVEPINTFHGIHQNEDEPIRVSYHRNIHYNSVVNPNKATIGVGLGLPSFKPGFAEQSLMKNAIKTSEESWIEQQMLEDKKRATDWEATNEAIEEQVARESYLQWLRDQEKQARQVRGPSQPRKASATCSSATAAASSGLEEWTSRSPRQRSSASSPEHPELHAELGMKPPSPGTVLALAKPPSPCAPGTSSQFSAGADRATSPLVSLYPALECRALIQQMSPSAFGLNDWDDDEILASVLAVSQQEYLDSMKKNKVHRDPPPDKS
Turning to B3, in experiment [5], the binding result is given as “binds”.

B4: His-OTUD5 (natural protein)
chain: MTILPKKKPPPPDADPANEPPPPGPMPPAPRRGGGVGVGGGGTGVGGGDRDRDSGVVGARPRASPPPQGPLPGPPGALHRWALAVPPGAVAGPRPQQASPPPCGGPGGPGGGPGDALGAAAAGVGAAGVVVGVGGAVGVGGCCSGPGHSKRRRQAPGVGAVGGGSPEREEVGAGYNSEDEYEAAAARIEAMDPATVEQQEHWFEKALRDKKGFIIKQMKEDGACLFRAVADQVYGDQDMHEVVRKHCMDYLMKNADYFSNYVTEDFTTYINRKRKNNCHGNHIEMQAMAEMYNRPVEVYQYSTGTSAVEPINTFHGIHQNEDEPIRVSYHRNIHYNSVVNPNKATIGVGLGLPSFKPGFAEQSLMKNAIKTSEESWIEQQMLEDKKRATDWEATNEAIEEQVARESYLQWLRDQEKQARQVRGPSQPRKASATCSSATAAASSGLEEWTSRSPRQRSSASSPEHPELHAELGMKPPSPGTVLALAKPPSPCAPGTSSQFSAGADRATSPLVSLYPALECRALIQQMSPSAFGLNDWDDDEILASVLAVSQQEYLDSMKKNKVHRDPPPDKS
modifications: Red-tris-NTA dye on the His tag (MST only)
For the molecule B4, the binding entry with GST-GPX4 fusion protein is given as “binds”.
